Data from the supplement of paper PMC10849652.
This is one part of the list.

Protein sequences, listed by entry. Tags and fused reporters are not part of them. Lines headed by an entry give the natural chain unless they say otherwise; changes in a name come on top.
UniProt Q8WWV3: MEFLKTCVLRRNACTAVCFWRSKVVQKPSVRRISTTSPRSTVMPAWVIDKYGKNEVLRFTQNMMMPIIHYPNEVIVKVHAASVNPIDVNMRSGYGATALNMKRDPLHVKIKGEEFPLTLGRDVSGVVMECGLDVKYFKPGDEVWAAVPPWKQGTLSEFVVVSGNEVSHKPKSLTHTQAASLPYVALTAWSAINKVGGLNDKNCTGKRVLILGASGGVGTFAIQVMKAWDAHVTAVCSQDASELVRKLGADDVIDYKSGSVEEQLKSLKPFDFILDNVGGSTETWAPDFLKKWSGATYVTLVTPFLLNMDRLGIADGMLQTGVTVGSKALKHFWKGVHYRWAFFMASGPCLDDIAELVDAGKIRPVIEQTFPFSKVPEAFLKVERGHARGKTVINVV
UniProt Q6P087: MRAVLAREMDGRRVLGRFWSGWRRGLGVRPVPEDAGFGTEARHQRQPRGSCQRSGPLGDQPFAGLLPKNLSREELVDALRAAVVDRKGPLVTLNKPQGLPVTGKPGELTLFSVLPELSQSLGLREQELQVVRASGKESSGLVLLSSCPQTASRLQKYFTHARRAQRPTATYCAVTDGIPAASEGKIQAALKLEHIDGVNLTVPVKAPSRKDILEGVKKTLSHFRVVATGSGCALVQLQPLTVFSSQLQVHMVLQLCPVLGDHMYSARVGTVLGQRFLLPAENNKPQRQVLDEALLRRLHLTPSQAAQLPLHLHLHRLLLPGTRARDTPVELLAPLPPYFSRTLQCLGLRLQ
UniProt Q8WXA3: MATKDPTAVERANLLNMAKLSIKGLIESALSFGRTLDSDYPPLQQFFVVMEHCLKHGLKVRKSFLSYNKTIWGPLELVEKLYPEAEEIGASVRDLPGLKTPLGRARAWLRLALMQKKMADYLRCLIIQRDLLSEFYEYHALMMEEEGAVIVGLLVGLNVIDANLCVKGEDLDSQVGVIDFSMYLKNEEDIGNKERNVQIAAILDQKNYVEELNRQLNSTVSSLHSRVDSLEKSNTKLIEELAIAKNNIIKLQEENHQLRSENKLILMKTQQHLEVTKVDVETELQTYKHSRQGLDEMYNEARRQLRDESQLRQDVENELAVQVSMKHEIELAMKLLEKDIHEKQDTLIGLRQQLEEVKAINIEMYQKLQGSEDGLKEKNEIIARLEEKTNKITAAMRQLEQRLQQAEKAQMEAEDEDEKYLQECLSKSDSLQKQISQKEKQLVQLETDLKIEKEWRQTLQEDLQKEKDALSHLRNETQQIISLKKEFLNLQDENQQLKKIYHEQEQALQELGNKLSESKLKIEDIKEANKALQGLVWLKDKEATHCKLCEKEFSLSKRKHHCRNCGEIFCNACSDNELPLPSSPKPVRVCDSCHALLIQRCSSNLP
UniProt Q8N2Y8: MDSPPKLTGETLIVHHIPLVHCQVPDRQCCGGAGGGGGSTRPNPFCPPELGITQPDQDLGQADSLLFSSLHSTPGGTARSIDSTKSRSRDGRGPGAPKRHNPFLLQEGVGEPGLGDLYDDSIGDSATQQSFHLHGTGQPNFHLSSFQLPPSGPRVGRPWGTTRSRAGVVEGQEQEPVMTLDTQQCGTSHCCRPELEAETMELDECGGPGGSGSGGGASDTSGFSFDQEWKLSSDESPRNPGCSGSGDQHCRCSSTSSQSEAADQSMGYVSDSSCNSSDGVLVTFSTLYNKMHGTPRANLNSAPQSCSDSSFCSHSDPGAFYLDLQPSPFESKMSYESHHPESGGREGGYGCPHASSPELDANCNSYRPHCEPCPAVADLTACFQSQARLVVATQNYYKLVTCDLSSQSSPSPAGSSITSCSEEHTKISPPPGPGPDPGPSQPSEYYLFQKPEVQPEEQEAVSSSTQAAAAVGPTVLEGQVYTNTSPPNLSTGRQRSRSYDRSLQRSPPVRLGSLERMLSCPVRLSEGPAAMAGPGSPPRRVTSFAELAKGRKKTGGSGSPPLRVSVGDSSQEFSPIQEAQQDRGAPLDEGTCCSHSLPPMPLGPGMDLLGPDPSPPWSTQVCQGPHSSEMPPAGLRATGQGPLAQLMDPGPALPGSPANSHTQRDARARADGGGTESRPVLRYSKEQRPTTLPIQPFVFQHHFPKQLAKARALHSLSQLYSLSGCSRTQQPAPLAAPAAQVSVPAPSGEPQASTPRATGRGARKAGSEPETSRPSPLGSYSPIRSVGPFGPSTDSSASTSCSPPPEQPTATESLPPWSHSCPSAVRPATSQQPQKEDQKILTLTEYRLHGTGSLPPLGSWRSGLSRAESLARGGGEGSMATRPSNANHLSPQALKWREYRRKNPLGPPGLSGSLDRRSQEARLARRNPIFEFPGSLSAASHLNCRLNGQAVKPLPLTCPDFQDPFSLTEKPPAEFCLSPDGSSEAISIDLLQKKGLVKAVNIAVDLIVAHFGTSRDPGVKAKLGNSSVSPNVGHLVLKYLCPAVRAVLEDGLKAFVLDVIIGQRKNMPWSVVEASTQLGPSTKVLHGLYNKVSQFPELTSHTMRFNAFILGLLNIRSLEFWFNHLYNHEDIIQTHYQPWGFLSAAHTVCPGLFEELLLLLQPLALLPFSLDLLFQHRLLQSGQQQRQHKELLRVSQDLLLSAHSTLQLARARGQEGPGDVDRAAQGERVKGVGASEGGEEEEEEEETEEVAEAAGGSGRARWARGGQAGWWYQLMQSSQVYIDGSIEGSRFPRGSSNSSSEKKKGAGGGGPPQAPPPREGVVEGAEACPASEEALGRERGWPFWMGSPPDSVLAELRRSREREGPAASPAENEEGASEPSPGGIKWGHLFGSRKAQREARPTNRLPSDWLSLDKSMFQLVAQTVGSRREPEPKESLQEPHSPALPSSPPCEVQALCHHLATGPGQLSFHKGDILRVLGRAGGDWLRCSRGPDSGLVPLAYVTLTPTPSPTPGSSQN
UniProt Q9BWD3: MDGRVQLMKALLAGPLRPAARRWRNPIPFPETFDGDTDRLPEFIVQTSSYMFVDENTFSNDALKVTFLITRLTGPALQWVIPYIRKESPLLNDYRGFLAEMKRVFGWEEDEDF
UniProt P26447: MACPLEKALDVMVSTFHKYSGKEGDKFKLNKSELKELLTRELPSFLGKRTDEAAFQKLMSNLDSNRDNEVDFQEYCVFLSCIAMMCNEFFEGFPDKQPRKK
UniProt O75582, whole entry, looked up: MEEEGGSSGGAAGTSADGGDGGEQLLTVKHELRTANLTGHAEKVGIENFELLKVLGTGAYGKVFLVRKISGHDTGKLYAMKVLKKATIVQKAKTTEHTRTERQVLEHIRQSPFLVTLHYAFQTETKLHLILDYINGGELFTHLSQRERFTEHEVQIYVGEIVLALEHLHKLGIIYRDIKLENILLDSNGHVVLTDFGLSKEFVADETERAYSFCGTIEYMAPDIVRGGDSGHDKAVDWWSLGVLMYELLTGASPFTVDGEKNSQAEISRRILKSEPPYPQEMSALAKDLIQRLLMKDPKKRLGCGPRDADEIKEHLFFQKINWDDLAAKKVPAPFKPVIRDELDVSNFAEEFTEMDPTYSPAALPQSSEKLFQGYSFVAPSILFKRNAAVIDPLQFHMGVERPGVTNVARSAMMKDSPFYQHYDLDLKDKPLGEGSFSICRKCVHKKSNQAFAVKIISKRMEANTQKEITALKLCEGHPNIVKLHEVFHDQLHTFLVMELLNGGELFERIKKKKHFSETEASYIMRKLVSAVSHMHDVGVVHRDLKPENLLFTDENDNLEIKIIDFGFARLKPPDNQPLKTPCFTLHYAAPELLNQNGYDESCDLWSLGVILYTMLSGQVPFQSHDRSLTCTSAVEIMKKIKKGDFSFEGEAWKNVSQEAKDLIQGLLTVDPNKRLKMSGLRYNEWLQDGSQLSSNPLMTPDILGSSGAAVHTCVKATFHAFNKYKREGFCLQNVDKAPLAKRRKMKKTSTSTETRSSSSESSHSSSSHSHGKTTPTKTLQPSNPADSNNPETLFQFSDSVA
UniProt Q9P2E9: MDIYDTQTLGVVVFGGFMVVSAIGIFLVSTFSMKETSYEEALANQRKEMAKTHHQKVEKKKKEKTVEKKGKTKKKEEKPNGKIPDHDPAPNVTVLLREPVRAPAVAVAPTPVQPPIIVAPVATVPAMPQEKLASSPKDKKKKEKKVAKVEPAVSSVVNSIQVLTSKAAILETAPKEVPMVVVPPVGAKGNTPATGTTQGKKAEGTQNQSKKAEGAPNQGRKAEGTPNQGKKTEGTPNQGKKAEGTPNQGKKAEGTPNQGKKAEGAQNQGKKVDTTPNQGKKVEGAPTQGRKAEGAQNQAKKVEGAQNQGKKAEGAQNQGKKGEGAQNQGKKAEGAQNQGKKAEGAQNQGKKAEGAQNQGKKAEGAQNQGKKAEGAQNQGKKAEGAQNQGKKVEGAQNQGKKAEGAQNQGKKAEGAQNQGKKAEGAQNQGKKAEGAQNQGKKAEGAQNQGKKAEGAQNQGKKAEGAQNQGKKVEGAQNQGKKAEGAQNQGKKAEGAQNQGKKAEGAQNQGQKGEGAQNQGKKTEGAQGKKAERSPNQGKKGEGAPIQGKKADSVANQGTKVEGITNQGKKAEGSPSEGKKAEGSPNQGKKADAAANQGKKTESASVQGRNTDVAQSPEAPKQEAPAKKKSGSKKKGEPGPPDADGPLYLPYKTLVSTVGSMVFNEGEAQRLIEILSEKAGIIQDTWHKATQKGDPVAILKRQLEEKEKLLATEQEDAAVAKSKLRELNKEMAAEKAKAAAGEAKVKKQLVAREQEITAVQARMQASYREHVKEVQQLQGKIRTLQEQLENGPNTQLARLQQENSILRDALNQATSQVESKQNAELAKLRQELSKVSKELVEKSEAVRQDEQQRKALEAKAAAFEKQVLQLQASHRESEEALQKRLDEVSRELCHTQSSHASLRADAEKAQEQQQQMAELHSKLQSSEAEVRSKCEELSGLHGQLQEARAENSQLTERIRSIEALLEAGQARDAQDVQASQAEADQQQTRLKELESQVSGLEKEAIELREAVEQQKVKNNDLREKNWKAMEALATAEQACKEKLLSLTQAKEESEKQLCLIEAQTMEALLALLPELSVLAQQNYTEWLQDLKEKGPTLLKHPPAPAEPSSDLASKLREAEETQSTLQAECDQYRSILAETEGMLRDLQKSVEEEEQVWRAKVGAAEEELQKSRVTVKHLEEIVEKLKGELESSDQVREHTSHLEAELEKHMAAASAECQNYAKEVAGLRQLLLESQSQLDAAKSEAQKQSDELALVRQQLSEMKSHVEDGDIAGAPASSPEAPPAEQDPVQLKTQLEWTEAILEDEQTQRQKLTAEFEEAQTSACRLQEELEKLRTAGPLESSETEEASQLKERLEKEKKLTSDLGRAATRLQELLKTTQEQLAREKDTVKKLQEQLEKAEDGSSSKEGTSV
UniProt P19793: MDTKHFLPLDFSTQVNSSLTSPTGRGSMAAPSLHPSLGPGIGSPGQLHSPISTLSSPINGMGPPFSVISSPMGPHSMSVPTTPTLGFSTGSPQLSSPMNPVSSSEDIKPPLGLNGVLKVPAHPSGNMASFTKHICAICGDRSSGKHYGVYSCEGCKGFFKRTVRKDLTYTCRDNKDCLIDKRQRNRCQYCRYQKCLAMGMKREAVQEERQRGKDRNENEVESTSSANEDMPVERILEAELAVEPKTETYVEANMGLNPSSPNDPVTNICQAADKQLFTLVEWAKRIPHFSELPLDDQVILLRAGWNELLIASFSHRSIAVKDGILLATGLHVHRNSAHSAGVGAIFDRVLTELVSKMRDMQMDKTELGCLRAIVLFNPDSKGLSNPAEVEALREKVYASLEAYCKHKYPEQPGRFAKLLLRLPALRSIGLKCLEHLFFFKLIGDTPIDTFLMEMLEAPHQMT
UniProt Q9UJJ7: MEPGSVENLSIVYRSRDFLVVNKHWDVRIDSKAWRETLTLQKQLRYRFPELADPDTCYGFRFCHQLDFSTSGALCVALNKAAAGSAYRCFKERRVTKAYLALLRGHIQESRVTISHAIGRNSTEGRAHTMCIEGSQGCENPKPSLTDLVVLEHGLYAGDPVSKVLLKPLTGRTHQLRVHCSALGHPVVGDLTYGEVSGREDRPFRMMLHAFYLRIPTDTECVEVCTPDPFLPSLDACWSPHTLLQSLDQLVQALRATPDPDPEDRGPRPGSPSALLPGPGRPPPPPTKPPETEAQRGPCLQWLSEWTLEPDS
UniProt Q9UIY3: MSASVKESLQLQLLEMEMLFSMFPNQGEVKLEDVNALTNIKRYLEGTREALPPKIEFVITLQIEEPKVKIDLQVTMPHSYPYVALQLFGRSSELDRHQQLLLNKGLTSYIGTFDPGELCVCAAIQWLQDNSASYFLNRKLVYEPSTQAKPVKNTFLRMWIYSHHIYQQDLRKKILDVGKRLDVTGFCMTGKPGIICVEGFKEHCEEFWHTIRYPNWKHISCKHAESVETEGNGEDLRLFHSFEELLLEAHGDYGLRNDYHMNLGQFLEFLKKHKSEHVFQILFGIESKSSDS
UniProt Q86WX3: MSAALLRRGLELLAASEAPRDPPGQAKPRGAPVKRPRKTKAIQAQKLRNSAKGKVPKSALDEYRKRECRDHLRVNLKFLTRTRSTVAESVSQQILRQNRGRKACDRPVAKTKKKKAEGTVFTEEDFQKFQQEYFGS

How the values were obtained:
Test in all cases: log2 fold change, soluble protein after heating vs DMSO (PISA); higher = thermal stabilisation; K562 lysate, 10 uM; active = over 0.2 and 3.5 SD of the protein, either way, in both replicates (recomputed)
ibrutinib = compound: C=CC(=O)N1CCC[C@@H](n2nc(-c3ccc(Oc4ccccc4)cc3)c3c(N)ncnc32)C1 [ibrutinib]
Procedure, shortened: (§1)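 Quantification was by TMTpro 16plex LC-MS/MS with equalised channel sums, applied to the supernatant after 21,000xg for 90 min. Samples were crude K562 extract at 1 mg/mL protein in PBS pH 7.4 with 1 mM MgCl2, treated with 10 μM compound for 30 min, heated for 3 min across 48°C-58°C, pooled and brought to 0.5% NP-40 at 4°C. Values are log-two fold changes in thermal stability relative to solvent controls, from duplicates.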

[1] = compound: CC(=O)c1cnc2ccc(-c3cc(Cl)c(O)c(Cl)c3)nc2c1N[C@H]1CC[C@H](CN(C)C)CC1
Procedure, shortened: as §1

ralimetinib = compound: CC(C)(C)Cn1c(N)nc2ccc(-c3[nH]c(C(C)(C)C)nc3-c3ccc(F)cc3)nc21 [ralimetinib]
Procedure, shortened: as §1

[2] = compound: CC(C)(O)CC(=O)NCCn1ccc2ncnc(Nc3ccc(Oc4cccc(C(F)(F)F)c4)c(Cl)c3)c21
Procedure, shortened: as §1

[3] = compound: CC(C)C1=C2N=C(C=C(N2N=C1)NCC3=CC=CC=C3)NCCCCCCN
Procedure, shortened: as §1

[4] = compound: CC1=C(C(CC(=O)N1)C2=CC=C(C=C2)C(F)(F)F)C(=O)NC3=C(C=C4C(=C3)C=NN4)F
Procedure, shortened: as §1

[5] = compound: CC1=C(C2=C(C=C1)C(=O)C3=CC=CC=C3N2CCCN)C
Procedure, shortened: as §1

[6] = compound: CC1=C(C=C(C=C1)NC(=O)C2=CC(=CC=C2)C(C)(C)C#N)NC3=CC4=C(C=C3)N=CN(C4=O)C
Procedure, shortened: as §1

[7] = compound: CC1=C(C=C(C=C1)NC(=O)C2=CC(=CC=C2)N(C)C)NC(=O)C3=CC=C(C=C3)O
Procedure, shortened: as §1

[8] = compound: CC1=CC=C(C=C1)SC2=C3C=C(SC3=CN=C2)C(=O)N
Procedure, shortened: as §1

vemurafenib = compound: CCCS(=O)(=O)Nc1ccc(F)c(C(=O)c2c[nH]c3ncc(-c4ccc(Cl)cc4)cc23)c1F [vemurafenib]
Procedure, shortened: as §1

[9] = compound: CCCS(=O)(=O)Nc1ccc(F)c(C(=O)c2c[nH]c3ncc(Cl)cc23)c1F
Procedure, shortened: as §1

barasertib = compound: CCN(CCCOc1ccc2c(Nc3cc(CC(=O)Nc4cccc(F)c4)[nH]n3)ncnc2c1)CCOP(=O)(O)O [barasertib]
Procedure, shortened: as §1

[10] = compound: CC[C@@H]1C(=O)N(C)c2cnc(Nc3ccc(C(=O)NC4CCN(C)CC4)cc3OC)nc2N1C1CCCC1
Procedure, shortened: as §1

volasertib = compound: CC[C@@H]1C(=O)N(C)c2cnc(Nc3ccc(C(=O)N[C@H]4CC[C@H](N5CCN(CC6CC6)CC5)CC4)cc3OC)nc2N1C(C)C [volasertib]
Procedure, shortened: as §1

[11] = compound: CCn1c(C(=O)N(C2CC2)C2CC2)cc2c3c(ncn3C)c(Nc3cc(C)n(C)n3)nc21
Procedure, shortened: as §1

[12] = compound: CCn1cc(-c2ccnc3[nH]c(-c4cccc(CN(C)C)c4)cc23)c(-c2ccc(NC(=O)N(C)C)cc2)n1
Procedure, shortened: as §1

[13] = compound: CN1CCC(CNc2ccc3ncc(-c4cccc(OC(F)(F)F)c4)n3n2)CC1
Procedure, shortened: as §1

saracatinib = compound: CN1CCN(CCOc2cc(OC3CCOCC3)c3c(Nc4c(Cl)ccc5c4OCO5)ncnc3c2)CC1 [saracatinib]
Procedure, shortened: as §1

sotrastaurin = compound: CN1CCN(c2nc(C3=C(c4c[nH]c5ccccc45)C(=O)NC3=O)c3ccccc3n2)CC1 [sotrastaurin]
Procedure, shortened: as §1

Measured: log2 fold change

RPS17 (UniProt P08708)
inactive: ibrutinib 0.015 | [1] 0.033 | ralimetinib -0.032 | [2] 0.016 | [3] 0.008 | [4] 0.013 | [5] -0.014 | [6] -0.034 | [7] 0.004 | [8] 0.037 | vemurafenib -0.011 | [9] 0.002 | barasertib -0.042 | [10] -0.014 | volasertib -0.005 | [11] -0.011 | [12] 0.188 | [13] -0.088 | saracatinib 0.01 | sotrastaurin 0.002

RPS15A (UniProt P62244)
inactive: ibrutinib -0.032 | [1] 0.011 | ralimetinib 0.036 | [2] 0.011 | [3] -0.006 | [4] -0.003 | [5] -0.071 | [6] -0.036 | [7] -0.018 | [8] 0.016 | vemurafenib -0.024 | [9] -0.018 | barasertib 0.003 | [10] -0.062 | volasertib -0.03 | [11] 0.026 | [12] 0.123 | [13] -0.025 | saracatinib -0.009 | sotrastaurin 0.023

RTN4IP1 (UniProt Q8WWV3)
active: [4] -0.398
inactive: ibrutinib 0.073 | [1] 0.02 | ralimetinib 0.012 | [2] 0.028 | [3] -0.042 | [5] -0.011 | [6] -0.008 | [7] -0.015 | [8] -0.033 | vemurafenib -0.02 | [9] 0.047 | barasertib -0.049 | [10] -0.018 | volasertib -0.014 | [11] -0.007 | [12] 0.058 | [13] -0.106 | saracatinib -0.048 | sotrastaurin 0.015

RPS3 (UniProt P23396)
inactive: ibrutinib 0.006 | [1] 0.004 | ralimetinib 0.022 | [2] 0.008 | [3] -0.006 | [4] -0.031 | [5] -0.053 | [6] -0.002 | [7] -0.007 | [8] 0.028 | vemurafenib -0.04 | [9] 0.006 | barasertib -0.022 | [10] -0.054 | volasertib -0.007 | [11] 0.016 | [12] 0.016 | [13] -0.005 | saracatinib 0 | sotrastaurin -0.013

RWDD3 (UniProt Q9Y3V2)
inactive: ralimetinib 0.058 | [2] 0.128 | [5] 0.326 | [6] -0.139 | [7] -0.08 | [11] 0.199 | [12] 0.392 | [13] -0.169 | saracatinib 0.115 | sotrastaurin 0.034

RPUSD3 (UniProt Q6P087)
inactive: [3] -0.023 | [4] 0.085 | [5] 0.045 | [6] 0.047 | vemurafenib -0.006 | [10] -0.004 | [12] 0.054 | [13] -0.101 | saracatinib -0.066 | sotrastaurin -0.037

RPP30 (UniProt Q5VU11)
inactive: vemurafenib 0.129 | [10] 0.127

2 records picked at random from the list so far:
RPUSD3 (UniProt Q6P087)
inactive: [3] -0.023 | [4] 0.085 | [5] 0.045 | [6] 0.047 | vemurafenib -0.006 | [10] -0.004 | [12] 0.054 | [13] -0.101 | saracatinib -0.066 | sotrastaurin -0.037

RWDD3 (UniProt Q9Y3V2)
inactive: ralimetinib 0.058 | [2] 0.128 | [5] 0.326 | [6] -0.139 | [7] -0.08 | [11] 0.199 | [12] 0.392 | [13] -0.169 | saracatinib 0.115 | sotrastaurin 0.034

More results

RUFY2 isoform 1 (UniProt Q8WXA3)
inactive: ibrutinib 0.068 | ralimetinib -0.031 | [2] 0.005 | [4] -0.118 | [6] -0.101 | [7] -0.033 | vemurafenib 0.01 | barasertib -0.206 | [10] 0.038 | [11] -0.026 | [12] -0.009 | [13] -0.178 | sotrastaurin 0.001

RUSC2 (UniProt Q8N2Y8)
inactive: ibrutinib 0.051 | ralimetinib 0.008 | [2] 0.041 | [3] -0.063 | [4] 0.111 | [5] -0.032 | [7] -0.216 | vemurafenib 0.428 | barasertib -0.012 | [11] 0.06 | [12] 0.025 | [13] 0.038 | saracatinib 0.153

RTL8A (UniProt Q9BWD3)
inactive: [6] -0.101 | vemurafenib -0.117 | [10] 0.024 | sotrastaurin 0.031

RPS15, A0A0B4J2B4
inactive: [1] -0.046 | [4] -0.073 | [8] 0.132 | [9] -0.091 | volasertib -0.08

S100A6 (UniProt P06703)
inactive: [1] -0.082 | ralimetinib 0.117 | [2] 0.152 | [3] -0.01 | [6] 0.04 | [7] 0.199 | [8] 0.032 | vemurafenib 0.036 | [9] 0.124 | [10] -0.027 | volasertib 0.048 | [11] -0.094 | [12] 0.03 | [13] -0.139 | sotrastaurin -0.033
active: [5] 0.793 | saracatinib 0.715

S100A4 (UniProt P26447)
inactive: [1] 0.037 | ralimetinib -0.039 | [2] -0.267 | [3] 0.121 | [4] 0.488 | [5] -0.004 | [6] 0.596 | [7] -0.103 | [8] 0.079 | vemurafenib -0.021 | [9] 0.054 | [10] -0.123 | volasertib -0.031 | [11] -0.053 | [12] 0.142 | [13] -0.085 | saracatinib 0.197 | sotrastaurin -0.588

RPS6KA5 (UniProt O75582)
active: [6] -0.441
inactive: [1] 0.173 | ralimetinib -0.02 | [2] -0.055 | [3] -0.027 | [4] 0.011 | [5] -0.04 | [7] 0.004 | [8] 0.005 | vemurafenib -0.048 | [9] -0.073 | [10] 0.059 | volasertib -0.182 | [11] 0.005 | [12] -0.116 | [13] 0.087 | saracatinib -0.071 | sotrastaurin 0.185

RRBP1 isoform 3 (UniProt Q9P2E9)
inactive: ibrutinib -0.067 | ralimetinib -0.015 | [2] 0.029 | [3] 0.014 | [5] 0.046 | [6] -0.004 | [7] -0.027 | vemurafenib 0.054 | barasertib -0.023 | [10] 0.006 | [11] -0.034 | saracatinib 0.023 | sotrastaurin 0.012

RPSA (UniProt F8WD59)
inactive: [4] 0.069 | [5] 0.043 | [12] 0.95 | [13] -0.006 | saracatinib -0.262

RXRA (UniProt P19793)
inactive: [1] -0.028 | ralimetinib -0.033 | [2] 0.087 | [3] 0.066 | [4] 0.059 | [5] 0.063 | [6] -0.02 | [7] -0.036 | [8] 0 | [9] -0.121 | volasertib 0.026 | [11] -0.061 | [13] 0.13 | saracatinib -0.093 | sotrastaurin 0.013
active: [12] -0.359

RPS19 (UniProt M0R2L9)
inactive: ralimetinib -0.16 | [2] 0.115 | [3] 0.051 | [5] 0.136 | [6] -0.035 | [7] 0.012 | vemurafenib 0.167 | [10] 0.092 | [11] -0.125 | saracatinib -0.458 | sotrastaurin 0.413

RUNDC1 (UniProt Q96C34)
inactive: ibrutinib -0.036 | ralimetinib 0.217 | [2] 0.086 | [3] 0.05 | [5] -0.099 | [6] -0.017 | [7] -0.256 | barasertib -0.073 | [11] -0.085 | [12] -0.091 | [13] 0.054 | saracatinib -0.09 | sotrastaurin 0.012

RTEL1 isoform 2 (UniProt Q9NZ71)
inactive: [4] 0.102 | [5] 0.034 | saracatinib 0.14

RXYLT1 (UniProt Q9Y2B1)
inactive: [1] -0.107 | ralimetinib -0.128 | [2] -0.071 | [3] 0.068 | [4] -0.046 | [5] -0.173 | [7] -0.133 | [8] 0.055 | [9] -0.103 | volasertib -0.001 | [11] -0.112 | saracatinib 0.091

RPUSD1 (UniProt Q9UJJ7)
inactive: ralimetinib -0.103 | [2] -0.185 | [5] 0 | [7] 0.136 | vemurafenib -0.007 | [10] 0.176 | [11] -0.18 | [12] 0.014 | [13] -0.137 | saracatinib 0.037

RTN4, A0A0U1RQR6
inactive: ralimetinib -0.177 | [2] -0.169 | [7] -0.038 | [11] -0.293 | [12] -0.032 | [13] 0.098

RPS3 (UniProt E9PJN9)
inactive: ralimetinib 0.137 | [2] -0.138 | [6] -0.029 | [7] 0.056 | vemurafenib -0.072 | [10] -0.038 | [11] 0.088 | sotrastaurin 0.004

RWDD2A (UniProt Q9UIY3)
inactive: ibrutinib 0.07 | ralimetinib -0.008 | [2] -0.028 | [3] 0.067 | [5] 0.13 | [6] 0.048 | [7] -0.022 | vemurafenib 0.158 | barasertib -0.044 | [10] 0.069 | [11] 0.04 | [12] -0.173 | [13] -0.113 | saracatinib 0.02 | sotrastaurin 0.061

RPS19BP1 (UniProt Q86WX3)
inactive: [1] 0.191 | [6] 0.205 | [8] 0.086 | [9] -0.106 | [10] 0.11 | volasertib -0.022 | sotrastaurin 0.041
